# According to the supplement of paper PMC12819154, “High-throughput peptide-centric local stability assay extends protein–ligand identification to membrane proteins, tissues and bacteria” (Nature Structural & Molecular Biology, 2025):
# Chains of the proteins cited; added tags and fusions are not shown. Lines headed by an entry give the natural chain unless they say otherwise; changes in a name come on top.
# UniProt Q9UHP3: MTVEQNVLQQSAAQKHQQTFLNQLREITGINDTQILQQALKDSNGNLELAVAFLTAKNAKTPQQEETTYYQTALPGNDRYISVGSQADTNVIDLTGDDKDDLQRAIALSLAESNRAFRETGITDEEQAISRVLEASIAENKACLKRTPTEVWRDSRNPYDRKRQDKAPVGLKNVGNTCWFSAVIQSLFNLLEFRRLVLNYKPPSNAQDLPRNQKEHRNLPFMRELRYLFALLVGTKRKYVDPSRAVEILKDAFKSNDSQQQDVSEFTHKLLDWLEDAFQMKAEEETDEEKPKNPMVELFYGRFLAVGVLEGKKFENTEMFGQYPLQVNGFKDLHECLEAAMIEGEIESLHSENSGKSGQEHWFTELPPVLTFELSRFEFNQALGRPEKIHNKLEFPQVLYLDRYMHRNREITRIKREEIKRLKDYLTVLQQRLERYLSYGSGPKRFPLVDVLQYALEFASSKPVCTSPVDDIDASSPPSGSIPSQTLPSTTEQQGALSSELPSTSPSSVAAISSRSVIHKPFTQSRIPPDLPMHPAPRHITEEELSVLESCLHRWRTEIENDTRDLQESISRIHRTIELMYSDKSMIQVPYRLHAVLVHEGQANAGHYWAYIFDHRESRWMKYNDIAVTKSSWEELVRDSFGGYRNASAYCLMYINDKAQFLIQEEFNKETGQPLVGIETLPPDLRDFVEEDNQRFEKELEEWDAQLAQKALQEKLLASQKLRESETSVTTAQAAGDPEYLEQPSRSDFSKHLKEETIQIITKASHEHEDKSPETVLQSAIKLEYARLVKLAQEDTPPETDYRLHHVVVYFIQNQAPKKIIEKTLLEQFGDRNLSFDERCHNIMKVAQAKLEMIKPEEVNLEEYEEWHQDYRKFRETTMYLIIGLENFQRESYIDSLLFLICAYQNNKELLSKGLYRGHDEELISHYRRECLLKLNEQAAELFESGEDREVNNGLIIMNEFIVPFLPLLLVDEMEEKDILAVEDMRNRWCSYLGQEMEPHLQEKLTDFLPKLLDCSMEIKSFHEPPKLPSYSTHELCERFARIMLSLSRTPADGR
# UniProt Q9ULT8: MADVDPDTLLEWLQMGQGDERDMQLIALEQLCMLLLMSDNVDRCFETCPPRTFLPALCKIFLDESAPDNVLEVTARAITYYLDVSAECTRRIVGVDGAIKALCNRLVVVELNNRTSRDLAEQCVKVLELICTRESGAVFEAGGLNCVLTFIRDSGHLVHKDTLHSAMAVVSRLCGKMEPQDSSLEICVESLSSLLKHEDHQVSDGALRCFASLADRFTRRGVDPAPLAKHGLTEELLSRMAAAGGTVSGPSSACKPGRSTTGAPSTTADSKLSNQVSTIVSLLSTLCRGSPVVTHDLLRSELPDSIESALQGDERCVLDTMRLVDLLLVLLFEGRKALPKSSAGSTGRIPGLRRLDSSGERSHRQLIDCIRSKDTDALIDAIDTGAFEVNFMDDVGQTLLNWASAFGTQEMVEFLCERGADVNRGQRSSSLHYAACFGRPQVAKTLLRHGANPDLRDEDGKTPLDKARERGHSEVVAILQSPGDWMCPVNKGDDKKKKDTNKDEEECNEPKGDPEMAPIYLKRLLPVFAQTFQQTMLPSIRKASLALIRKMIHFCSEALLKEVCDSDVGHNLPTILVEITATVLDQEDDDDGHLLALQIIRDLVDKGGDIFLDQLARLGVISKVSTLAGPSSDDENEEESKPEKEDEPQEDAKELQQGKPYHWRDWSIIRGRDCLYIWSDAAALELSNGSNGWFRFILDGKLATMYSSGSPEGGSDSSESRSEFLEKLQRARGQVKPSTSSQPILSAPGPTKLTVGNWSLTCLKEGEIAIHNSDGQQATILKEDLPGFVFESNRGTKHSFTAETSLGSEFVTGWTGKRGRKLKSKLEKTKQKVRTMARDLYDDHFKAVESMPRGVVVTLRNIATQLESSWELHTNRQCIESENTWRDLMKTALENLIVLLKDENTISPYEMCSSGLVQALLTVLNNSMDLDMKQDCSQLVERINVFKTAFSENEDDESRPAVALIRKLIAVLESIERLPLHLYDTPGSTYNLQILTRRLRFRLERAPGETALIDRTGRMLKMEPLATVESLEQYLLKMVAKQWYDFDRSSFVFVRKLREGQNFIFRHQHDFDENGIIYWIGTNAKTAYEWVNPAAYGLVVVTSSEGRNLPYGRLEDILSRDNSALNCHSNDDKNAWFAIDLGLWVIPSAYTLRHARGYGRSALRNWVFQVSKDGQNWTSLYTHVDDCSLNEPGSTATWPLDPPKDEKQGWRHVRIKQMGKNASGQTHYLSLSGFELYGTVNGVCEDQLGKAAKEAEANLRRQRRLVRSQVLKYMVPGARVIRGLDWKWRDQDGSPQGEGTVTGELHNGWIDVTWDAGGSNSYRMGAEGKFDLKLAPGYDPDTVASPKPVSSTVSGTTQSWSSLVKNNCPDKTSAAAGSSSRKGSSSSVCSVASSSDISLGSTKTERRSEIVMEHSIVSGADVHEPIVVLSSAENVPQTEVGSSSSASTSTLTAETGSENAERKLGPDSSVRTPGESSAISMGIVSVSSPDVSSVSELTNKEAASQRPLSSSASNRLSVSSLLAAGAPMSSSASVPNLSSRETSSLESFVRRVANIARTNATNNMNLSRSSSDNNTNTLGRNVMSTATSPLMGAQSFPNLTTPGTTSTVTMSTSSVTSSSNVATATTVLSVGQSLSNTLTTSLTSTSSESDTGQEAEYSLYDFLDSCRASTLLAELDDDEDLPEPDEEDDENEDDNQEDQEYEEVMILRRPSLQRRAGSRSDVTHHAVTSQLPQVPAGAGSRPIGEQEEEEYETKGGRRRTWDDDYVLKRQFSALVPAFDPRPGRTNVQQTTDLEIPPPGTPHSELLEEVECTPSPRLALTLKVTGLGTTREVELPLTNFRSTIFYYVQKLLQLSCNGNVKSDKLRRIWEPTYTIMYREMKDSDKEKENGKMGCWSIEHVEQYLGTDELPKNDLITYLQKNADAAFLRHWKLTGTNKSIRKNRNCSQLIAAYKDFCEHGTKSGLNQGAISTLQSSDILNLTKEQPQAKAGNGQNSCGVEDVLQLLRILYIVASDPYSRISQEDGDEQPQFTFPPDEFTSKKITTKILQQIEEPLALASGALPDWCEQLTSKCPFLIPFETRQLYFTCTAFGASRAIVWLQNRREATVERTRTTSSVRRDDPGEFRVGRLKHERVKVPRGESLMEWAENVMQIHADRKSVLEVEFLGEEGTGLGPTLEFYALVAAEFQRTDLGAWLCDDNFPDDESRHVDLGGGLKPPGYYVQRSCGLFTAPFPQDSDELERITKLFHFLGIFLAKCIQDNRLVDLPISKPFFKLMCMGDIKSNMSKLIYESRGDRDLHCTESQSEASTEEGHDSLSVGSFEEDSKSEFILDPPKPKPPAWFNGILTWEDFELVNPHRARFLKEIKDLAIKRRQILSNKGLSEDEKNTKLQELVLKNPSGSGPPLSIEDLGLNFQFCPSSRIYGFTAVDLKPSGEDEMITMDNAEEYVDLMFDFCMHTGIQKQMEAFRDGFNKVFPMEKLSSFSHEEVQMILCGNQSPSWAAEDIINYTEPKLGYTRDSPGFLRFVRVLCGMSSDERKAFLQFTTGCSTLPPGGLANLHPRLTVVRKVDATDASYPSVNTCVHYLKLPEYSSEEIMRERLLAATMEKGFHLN
# UniProt Q9UHC6: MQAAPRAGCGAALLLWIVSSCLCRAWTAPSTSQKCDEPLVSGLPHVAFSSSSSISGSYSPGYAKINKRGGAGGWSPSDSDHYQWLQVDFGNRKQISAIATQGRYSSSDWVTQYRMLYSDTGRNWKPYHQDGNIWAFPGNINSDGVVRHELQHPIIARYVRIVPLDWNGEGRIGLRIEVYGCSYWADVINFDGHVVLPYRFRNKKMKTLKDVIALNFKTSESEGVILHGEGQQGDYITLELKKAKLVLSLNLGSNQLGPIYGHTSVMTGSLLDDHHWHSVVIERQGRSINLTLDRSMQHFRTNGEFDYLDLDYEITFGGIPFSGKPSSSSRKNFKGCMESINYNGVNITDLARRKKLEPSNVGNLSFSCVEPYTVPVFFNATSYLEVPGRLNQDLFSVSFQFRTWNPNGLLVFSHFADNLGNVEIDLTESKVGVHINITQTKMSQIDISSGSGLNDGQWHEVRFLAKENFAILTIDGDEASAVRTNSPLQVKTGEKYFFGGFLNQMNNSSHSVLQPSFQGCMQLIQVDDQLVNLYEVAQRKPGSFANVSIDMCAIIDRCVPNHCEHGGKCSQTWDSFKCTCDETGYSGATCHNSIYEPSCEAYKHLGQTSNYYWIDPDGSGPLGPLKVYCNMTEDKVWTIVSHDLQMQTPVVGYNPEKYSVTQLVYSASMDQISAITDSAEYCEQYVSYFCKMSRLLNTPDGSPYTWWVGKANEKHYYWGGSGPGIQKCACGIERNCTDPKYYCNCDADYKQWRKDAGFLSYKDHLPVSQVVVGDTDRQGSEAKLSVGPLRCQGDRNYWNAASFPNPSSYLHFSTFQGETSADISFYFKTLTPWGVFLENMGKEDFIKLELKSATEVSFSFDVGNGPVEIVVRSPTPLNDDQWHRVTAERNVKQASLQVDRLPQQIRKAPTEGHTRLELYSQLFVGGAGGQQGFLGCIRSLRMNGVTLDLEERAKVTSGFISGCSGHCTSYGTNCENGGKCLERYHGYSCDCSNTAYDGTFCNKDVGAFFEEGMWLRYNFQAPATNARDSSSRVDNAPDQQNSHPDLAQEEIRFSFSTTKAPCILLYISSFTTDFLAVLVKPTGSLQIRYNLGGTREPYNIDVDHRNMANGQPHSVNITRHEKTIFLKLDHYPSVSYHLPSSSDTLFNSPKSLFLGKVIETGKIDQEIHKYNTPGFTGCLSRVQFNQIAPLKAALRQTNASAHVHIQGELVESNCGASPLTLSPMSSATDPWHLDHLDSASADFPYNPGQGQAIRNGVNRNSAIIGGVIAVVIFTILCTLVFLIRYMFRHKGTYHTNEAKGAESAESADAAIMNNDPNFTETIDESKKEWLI
# UniProt Q9UII5: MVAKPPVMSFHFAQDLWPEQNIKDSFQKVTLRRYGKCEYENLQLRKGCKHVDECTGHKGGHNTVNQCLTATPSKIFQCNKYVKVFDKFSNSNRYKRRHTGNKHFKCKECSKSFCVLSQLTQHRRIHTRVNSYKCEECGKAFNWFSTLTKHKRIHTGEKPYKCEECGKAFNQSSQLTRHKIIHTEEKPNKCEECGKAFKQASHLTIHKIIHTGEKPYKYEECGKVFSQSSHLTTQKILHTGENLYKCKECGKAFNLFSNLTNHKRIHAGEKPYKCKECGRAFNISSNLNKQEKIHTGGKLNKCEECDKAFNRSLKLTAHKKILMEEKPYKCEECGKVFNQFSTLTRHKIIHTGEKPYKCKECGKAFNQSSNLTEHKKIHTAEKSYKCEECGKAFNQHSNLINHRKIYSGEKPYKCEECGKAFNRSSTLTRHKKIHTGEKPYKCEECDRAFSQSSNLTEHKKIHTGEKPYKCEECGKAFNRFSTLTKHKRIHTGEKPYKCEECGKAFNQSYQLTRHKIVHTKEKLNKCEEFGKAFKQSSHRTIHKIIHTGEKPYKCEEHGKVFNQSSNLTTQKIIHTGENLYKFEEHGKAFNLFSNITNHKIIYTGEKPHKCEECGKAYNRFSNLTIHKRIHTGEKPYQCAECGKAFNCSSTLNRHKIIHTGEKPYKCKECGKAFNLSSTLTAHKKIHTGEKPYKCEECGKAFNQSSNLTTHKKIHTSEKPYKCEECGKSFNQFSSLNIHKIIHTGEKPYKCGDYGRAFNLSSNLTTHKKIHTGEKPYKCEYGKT
# UniProt Q9UJX3, whole entry: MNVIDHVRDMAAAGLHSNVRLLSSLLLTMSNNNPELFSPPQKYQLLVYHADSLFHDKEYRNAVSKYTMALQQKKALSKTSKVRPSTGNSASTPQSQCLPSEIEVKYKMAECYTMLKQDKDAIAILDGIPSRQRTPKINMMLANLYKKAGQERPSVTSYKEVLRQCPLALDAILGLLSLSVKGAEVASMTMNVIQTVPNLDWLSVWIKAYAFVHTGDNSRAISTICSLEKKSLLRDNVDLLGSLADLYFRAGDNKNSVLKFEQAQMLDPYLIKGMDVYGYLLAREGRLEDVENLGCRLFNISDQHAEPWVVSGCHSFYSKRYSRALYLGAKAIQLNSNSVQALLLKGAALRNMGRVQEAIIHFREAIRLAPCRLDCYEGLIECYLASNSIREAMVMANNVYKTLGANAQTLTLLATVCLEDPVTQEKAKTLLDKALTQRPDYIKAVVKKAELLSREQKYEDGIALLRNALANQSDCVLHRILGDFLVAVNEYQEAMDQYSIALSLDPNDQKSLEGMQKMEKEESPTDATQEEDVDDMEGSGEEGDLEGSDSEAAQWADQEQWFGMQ
# The list shows a part of the results. Small differences around the control level are noise.
# Compound: Cc1nc(Nc2ncc(C(=O)Nc3c(C)cccc3Cl)s2)cc(N2CCN(CCO)CC2)n1 [dasatinib]
# Assay: log2 fold change of tryptic peptide abundance, ligand vs vehicle (limited proteolysis) (log2 ratio); higher = more trypsin-susceptible (destabilized)
# Conditions: ligand concentration: 5 uM; sample: K562 cleared lysate
row,Target,log2 fold change
1,"USP25 (peptide sequence: GHDEELISHYR, peptide start residue: 918) (UniProt Q9UHP3)",0.322
2,"EIF3L (peptide sequence: IQLLVFK, peptide start residue: 488) (UniProt Q9Y262)",-0.25
3,"HECTD1 (peptide sequence: LVVVELNNR, peptide start residue: 106) (UniProt Q9ULT8)",-0.189
4,"UniProt Q9ULM2 (peptide sequence: WKDQDIEDEHKNQGR, peptide start residue: 100)",0.195
5,"UniProt Q9ULD5 (peptide sequence: DTPFQISSAVQK, peptide start residue: 163)",0.34
6,"TNRC6B (peptide sequence: STWSPDPIGHNPTHLSNK, peptide start residue: 1567) (UniProt Q9UPQ9)",-0.159
7,"UniProt Q9UJA3 (peptide sequence: AGVVCSLPAR, peptide start residue: 544)",0.187
8,"UniProt Q9UHC6 (peptide sequence: GTYHTNEAK, peptide start residue: 89)",-0.144
9,"UniProt Q9UII5 (peptide sequence: AFNLSSNLTTHKK, peptide start residue: 756)",0.204
10,"ANAPC7 (peptide sequence: INMMLANLYK, peptide start residue: 137) (UniProt Q9UJX3)",-0.681
11,"HDAC5 (peptide sequence: QHEVQLQK, peptide start residue: 108) (UniProt Q9UQL6)",0.301
